Patent publication US12729225B2, “Non-canonical SWI/SNF complex and uses thereof” (Dana-Farber Cancer Institute, Inc., priority 2018, dated 2026)

B1: SELH (protein, UniProt Q8IZQ5 1-122, looked up)
Selenoprotein H: MAPRGRKRKAEAAVVAVAEKREKLANGGEGMEEATVVIEHCTSURVYGRNAAALSQALRLEAPELPVKVNPTKPRRGSFEVTLLRPDGSSAELWTGIKKGPPRKLKFPEPQEVVEELKKYLS
B2: SLC25A11 (protein, UniProt Q02978 2-314, looked up)
Mitochondrial …: AATASAGAGGIDGKPRTSPKSVKFLFGGLAGMGATVFVQPLDLVKNRMQLSGEGAKTREYKTSFHALTSILKAEGLRGIYTGLSAGLLRQATYTTTRLGIYTVLFERLTGADGTPPGFLLKAVIGMTAGATGAFVGTPAEVALIRMTADGRLPADQRRGYKNVFNALIRITREEGVLTLWRGCIPTMARAVVVNAAQLASYSQSKQFLLDSGYFSDNILCHFCASMISGLVTTAASMPVDIAKTRIQNMRMIDGKPEYKNGLDVLFKVVRYEGFFSLWKGFTPYYARLGPHTVLTFIFLEQMNKAYKRLFLSG
B3: DHCR7 (protein, UniProt Q9UBM7 1-475, looked up)
7-dehydrocholesterol reductase: MAAKSQPNIPKAKSLDGVTNDRTASQGQWGRAWEVDWFSLASVIFLLLFAPFIVYYFIMACDQYSCALTGPVVDIVTGHARLSDIWAKTPPITRKAAQLYTLWVTFQVLLYTSLPDFCHKFLPGYVGGIQEGAVTPAGVVNKYQINGLQAWLLTHLLWFANAHLLSWFSPTIIFDNWIPLLWCANILGYAVSTFAMVKGYFFPTSARDCKFTGNFFYNYMMGIEFNPRIGKWFDFKLFFNGRPGIVAWTLINLSFAAKQRELHSHVTNAMVLVNVLQAIYVIDFFWNETWYLKTIDICHDHFGWYLGWGDCVWLPYLYTLQGLYLVYHPVQLSTPHAVGVLLLGLVGYYIFRVANHQKDLFRRTDGRCLIWGRKPKVIECSYTSADGQRHHSKLLVSGFWGVARHFNYVGDLMGSLAYCLACGGGHLLPYFYIIYMAILLTHRCLRDEHRCASKYGRDWERYTAAVPYRLLPGIF
B4: VAT1 (protein, UniProt Q99536 2-393, looked up)
Synaptic vesicle membrane …: SDEREVAEAATGEDASSPPPKTEAASDPQHPAASEGAAAAAASPPLLRCLVLTGFGGYDKVKLQSRPAAPPAPGPGQLTLRLRACGLNFADLMARQGLYDRLPPLPVTPGMEGAGVVIAVGEGVSDRKAGDRVMVLNRSGMWQEEVTVPSVQTFLIPEAMTFEEAAALLVNYITAYMVLFDFGNLQPGHSVLVHMAAGGVGMAAVQLCRTVENVTVFGTASASKHEALKENGVTHPIDYHTTDYVDEIKKISPKGVDIVMDPLGGSDTAKGYNLLKPMGKVVTYGMANLLTGPKRNLMALARTWWNQFSVTALQLLQANRAVCGFHLGYLDGEVELVSGVVARLLALYNQGHIKPHIDSVWPFEKVADAMKQMQEKKNVGKVLLVPGPEKEN
B5: TDRKH (protein, UniProt Q9Y2W6 1-561, looked up)
Tudor and KH …: MSTERTSWTSLSTIQKIALGLGIPASATVAYILYRRYRESREERLTFVGEDDIEIEMRVPQEAVKLIIGRQGANIKQLRKQTGARIDVDTEDVGDERVLLISGFPVQVCKAKAAIHQILTENTPVSEQLSVPQRSVGRIIGRGGETIRSICKASGAKITCDKESEGTLLLSRLIKISGTQKEVAAAKHLILEKVSEDEELRKRIAHSAETRVPRKQPISVRREDMTEPGGAGEPALWKNTSSSMEPTAPLVTPPPKGGGDMAVVVSKEGSWEKPSDDSFQKSEAQAIPEMPMFEIPSPDFSFHADEYLEVYVSASEHPNHFWIQIVGSRSLQLDKLVNEMTQHYENSVPEDLTVHVGDIVAAPLPTNGSWYRARVLGTLENGNLDLYFVDFGDNGDCPLKDLRALRSDFLSLPFQAIECSLARIAPSGDQWEEEALDEFDRLTHCADWKPLVAKISSYVQTGISTWPKIYLYDTSNGKKLDIGLELVHKGYAIELPEDIEENRAVPDMLKDMATETDASLSTLLTETKKSSGEITHTLSCLSLSEAASMSGDDNLEDDYLL
B6: STK33 (protein, UniProt Q9BYT3 1-514, looked up)
Serine/threonine-protein …: MADSGLDKKSTKCPDCSSASQKDVLCVCSSKTRVPPVLVVEMSQTSSIGSAESLISLERKKEKNINRDITSRKDLPSRTSNVERKASQQQWGRGNFTEGKVPHIRIENGAAIEEIYTFGRILGKGSFGIVIEATDKETETKWAIKKVNKEKAGSSAVKLLEREVNILKSVKHEHIIHLEQVFETPKKMYLVMELCEDGELKEILDRKGHFSENETRWIIQSLASAIAYLHNNDIVHRDLKLENIMVKSSLIDDNNEINLNIKVTDFGLAVKKQSRSEAMLQATCGTPIYMAPEVISAHDYSQQCDIWSIGVVMYMLLRGEPPFLASSEEKLFELIRKGELHFENAVWNSISDCAKSVLKQLMKVDPAHRITAKELLDNQWLTGNKLSSVRPTNVLEMMKEWKNNPESVEENTTEEKNKPSTEEKLKSYQPWGNVPDANYTSDEEEEKQSTAYEKQFPATSKDNFDMCSSSFTSSKLLPAEIKGEMEKTPVTPSQGTATKYPAKSGALSRTKKKL
B7: EIF4G2 (protein, UniProt P78344 1-907, looked up)
Eukaryotic translation …: MESAIAEGGASRFSASSGGGGSRGAPQHYPKTAGNSEFLGKTPGQNAQKWIPARSTRRDDNSAANNSANEKERHDAIFRKVRGILNKLTPEKFDKLCLELLNVGVESKLILKGVILLIVDKALEEPKYSSLYAQLCLRLAEDAPNFDGPAAEGQPGQKQSTTFRRLLISKLQDEFENRTRNVDVYDKRENPLLPEEEEQRAIAKIKMLGNIKFIGELGKLDLIHESILHKCIKTLLEKKKRVQLKDMGEDLECLCQIMRTVGPRLDHERAKSLMDQYFARMCSLMLSKELPARIRFLLQDTVELREHHWVPRKAFLDNGPKTINQIRQDAVKDLGVFIPAPMAQGMRSDFFLEGPFMPPRMKMDRDPLGGLADMFGQMPGSGIGTGPGVIQDRFSPTMGRHRSNQLFNGHGGHIMPPTQSQFGEMGGKFMKSQGLSQLYHNQSQGLLSQLQGQSKDMPPRFSKKGQLNADEISLRPAQSFLMNKNQVPKLQPQITMIPPSAQPPRTQTPPLGQTPQLGLKTNPPLIQEKPAKTSKKPPPSKEELLKLTETVVTEYLNSGNANEAVNGVREMRAPKHFLPEMLSKVIILSLDRSDEDKEKASSLISLLKQEGIATSDNFMQAFLNVLDQCPKLEVDIPLVKSYLAQFAARAIISELVSISELAQPLESGTHFPLFLLCLQQLAKLQDREWLTELFQQSKVNMQKMLPEIDQNKDRMLEILEGKGLSFLFPLLKLEKELLKQIKLDPSPQTIYKWIKDNISPKLHVDKGFVNILMTSFLQYISSEVNPPSDETDSSSAPSKEQLEQEKQLLLSFKPVMQKFLHDHVDLQVSALYALQVHCYNSNFPKGMLLRFFVHFYDMEIIEEEAFLAWKEDITQEFPGKGKALFQVNQWLTWLETAEEEESEEEAD
B8: FCF1 (protein, UniProt Q9Y324 1-198, looked up)
rRNA-processing protein FCF1 …: MGKQKKTRKYATMKRMLSLRDQRLKEKDRLKPKKKEKKDPSALKEREVPQHPSCLFFQYNTQLGPPYHILVDTNFINFSIKAKLDLVQSMMDCLYAKCIPCITDCVMAEIEKLGQKYRVALRIAKDPRFERLPCTHKGTYADDCLVQRVTQHKCYIVATVDRDLKRRIRKIPGVPIMYISNHRYNIERMPDDYGAPRF
B9: MTDH (protein, UniProt Q86UE4 1-582, looked up)
Protein LYRIC: MAARSWQDELAQQAEEGSARLREMLSVGLGFLRTELGLDLGLEPKRYPGWVILVGTGALGLLLLFLLGYGWAAACAGARKKRRSPPRKREEAAAVPAAAPDDLALLKNLRSEEQKKKNRKKLSEKPKPNGRTVEVAEGEAVRTPQSVTAKQPPEIDKKNEKSKKNKKKSKSDAKAVQNSSRHDGKEVDEGAWETKISHREKRQQRKRDKVLTDSGSLDSTIPGIENTITVTTEQLTTASFPVGSKKNKGDSHLNVQVSNFKSGKGDSTLQVSSGLNENLTVNGGGWNEKSVKLSSQISAGEEKWNSVSPASAGKRKTEPSAWSQDTGDANTNGKDWGRSWSDRSIFSGIGSTAEPVSQSTTSDYQWDVSRNQPYIDDEWSGLNGLSSADPNSDWNAPAEEWGNWVDEERASLLKSQEPIPDDQKVSDDDKEKGEGALPTGKSKKKKKKKKKQGEDNSTAQDTEELEKEIREDLPVNTSKTRPKQEKAFSLKTISTSDPAEVLVKNSQPIKTLPPATSTEPSVILSKSDSDKSSSQVPPILQETDKSKSNTKQNSVPPSQTKSETSWESPKQIKKKKKARRET
B10: ##RASAL1 (protein, UniProt O95294 1-804, looked up)
RasGAP-activating-like …: MAKSSSLNVRVVEGRALPAKDVSGSSDPYCLVKVDDEVVARTATVWRSLGPFWGEEYTVHLPLDFHQLAFYVLDEDTVGHDDIIGKISLSREAITADPRGIDSWINLSRVDPDAEVQGEICLSVQMLEDGQGRCLRCHVLQARDLAPRDISGTSDPFARVFWGSQSLETSTIKKTRFPHWDEVLELREMPGAPSPLRVELWDWDMVGKNDFLGMVEFSPKTLQQKPPKGWFRLLPFPRAEEDSGGNLGALRVKVRLIEDRVLPSQCYQPLMELLMESVQGPAEEDTASPLALLEELTLGDCRQDLATKLVKLFLGRGLAGRFLDYLTRREVARTMDPNTLFRSNSLASKSMEQFMKLVGMPYLHEVLKPVISRVFEEKKYMELDPCKMDLGRTRRISFKGALSEEQMRETSLGLLTGYLGPIVDAIVGSVGRCPPAMRLAFKQLHRRVEERFPQAEHQDVKYLAISGFLFLRFFAPAILTPKLFDLRDQHADPQTSRSLLLLAKAVQSIGNLGQQLGQGKELWMAPLHPFLLQCVSRVRDFLDRLVDVDGDEAGVPARALFPPSAIVREGYLLKRKEEPAGLATRFAFKKRYVWLSGETLSFSKSPEWQMCHSIPVSHIRAVERVDEGAFQLPHVMQVVTQDGTGALHTTYLQCKNVNELNQWLSALRKASAPNPNKLAACHPGAFRSARWTCCLQAERSAAGCSRTHSAVTLGDWSDPLDPDAEAQTVYRQLLLGRDQLRLKLLEDSNMDTTLEADTGACPEVLARQRAATARLLEVLADLDRAHEEFQQQERGKAALGPLGP

Test system: mSWI/SNF complexes
Assay: mSWI/SNF complex purification with HA-tagged baits and mass spectrometry (peptide counts)
Design: species or system human
[1] = 293_HA-BRD7 bait purification, mass spectrometry, total peptide count per identified protein
[2] = 293_HA-BRD7 bait purification, mass spectrometry, unique peptide count per identified protein

| Molecule | Total [1] | Unique [2] | Total (293_HA-BRD7: HA-BRD7 bait purification, total peptide count per co-purified protein) | Unique (293_HA-BRD7: HA-BRD7 bait purification, unique peptide count per co-purified protein) | Total (293_HA-DPF2 purification, total peptides) | Unique (293_HA-DPF2 purification, unique peptides) |
| --- | --- | --- | --- | --- | --- | --- |
| B1 | 1 | 1 |  |  |  |  |
| B2 |  |  | 12 | 12 | 1 | 1 |
| B3 | 1 | 1 |  |  |  |  |
| B4 | 1 | 1 |  |  |  |  |
| B5 | 1 | 1 |  |  |  |  |
| B6 | 1 | 1 |  |  |  |  |
| B7 | 1 | 1 |  |  |  |  |
| B8 | 1 | 1 |  |  |  |  |
| B9 | 1 | 1 |  |  |  |  |
| B10 | 1 | 1 |  |  |  |  |
